These are yes or no findings as the source states them, for the method shown. In cells and extracts the contact can be indirect. Some binding calls cover weakened binding; strength is not graded here.

The chains behind the UniProt entries cited, without tags or fusion partners.
UniProt Q9BUJ2: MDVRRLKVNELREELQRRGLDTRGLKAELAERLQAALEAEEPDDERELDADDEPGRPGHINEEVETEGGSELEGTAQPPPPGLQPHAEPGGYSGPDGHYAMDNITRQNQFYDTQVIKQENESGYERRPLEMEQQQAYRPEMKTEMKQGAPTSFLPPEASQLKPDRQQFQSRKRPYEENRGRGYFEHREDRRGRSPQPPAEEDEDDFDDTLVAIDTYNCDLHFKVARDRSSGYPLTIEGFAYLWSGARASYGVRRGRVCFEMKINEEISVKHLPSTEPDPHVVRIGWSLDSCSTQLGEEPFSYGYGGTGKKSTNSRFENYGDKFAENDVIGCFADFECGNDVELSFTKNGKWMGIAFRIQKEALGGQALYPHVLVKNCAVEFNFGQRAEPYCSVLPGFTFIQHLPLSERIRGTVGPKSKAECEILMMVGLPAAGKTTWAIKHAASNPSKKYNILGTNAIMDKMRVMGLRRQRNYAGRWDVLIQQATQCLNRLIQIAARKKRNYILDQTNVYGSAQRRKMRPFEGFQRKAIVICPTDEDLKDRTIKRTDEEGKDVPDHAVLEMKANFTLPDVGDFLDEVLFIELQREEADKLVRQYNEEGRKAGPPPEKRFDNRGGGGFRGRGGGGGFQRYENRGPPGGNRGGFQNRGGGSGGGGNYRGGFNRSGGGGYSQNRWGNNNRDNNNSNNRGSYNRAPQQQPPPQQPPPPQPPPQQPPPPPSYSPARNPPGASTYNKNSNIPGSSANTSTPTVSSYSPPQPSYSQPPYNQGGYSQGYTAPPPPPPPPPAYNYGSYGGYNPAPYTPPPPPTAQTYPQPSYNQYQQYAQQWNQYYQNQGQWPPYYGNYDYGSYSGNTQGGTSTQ
UniProt Q12888: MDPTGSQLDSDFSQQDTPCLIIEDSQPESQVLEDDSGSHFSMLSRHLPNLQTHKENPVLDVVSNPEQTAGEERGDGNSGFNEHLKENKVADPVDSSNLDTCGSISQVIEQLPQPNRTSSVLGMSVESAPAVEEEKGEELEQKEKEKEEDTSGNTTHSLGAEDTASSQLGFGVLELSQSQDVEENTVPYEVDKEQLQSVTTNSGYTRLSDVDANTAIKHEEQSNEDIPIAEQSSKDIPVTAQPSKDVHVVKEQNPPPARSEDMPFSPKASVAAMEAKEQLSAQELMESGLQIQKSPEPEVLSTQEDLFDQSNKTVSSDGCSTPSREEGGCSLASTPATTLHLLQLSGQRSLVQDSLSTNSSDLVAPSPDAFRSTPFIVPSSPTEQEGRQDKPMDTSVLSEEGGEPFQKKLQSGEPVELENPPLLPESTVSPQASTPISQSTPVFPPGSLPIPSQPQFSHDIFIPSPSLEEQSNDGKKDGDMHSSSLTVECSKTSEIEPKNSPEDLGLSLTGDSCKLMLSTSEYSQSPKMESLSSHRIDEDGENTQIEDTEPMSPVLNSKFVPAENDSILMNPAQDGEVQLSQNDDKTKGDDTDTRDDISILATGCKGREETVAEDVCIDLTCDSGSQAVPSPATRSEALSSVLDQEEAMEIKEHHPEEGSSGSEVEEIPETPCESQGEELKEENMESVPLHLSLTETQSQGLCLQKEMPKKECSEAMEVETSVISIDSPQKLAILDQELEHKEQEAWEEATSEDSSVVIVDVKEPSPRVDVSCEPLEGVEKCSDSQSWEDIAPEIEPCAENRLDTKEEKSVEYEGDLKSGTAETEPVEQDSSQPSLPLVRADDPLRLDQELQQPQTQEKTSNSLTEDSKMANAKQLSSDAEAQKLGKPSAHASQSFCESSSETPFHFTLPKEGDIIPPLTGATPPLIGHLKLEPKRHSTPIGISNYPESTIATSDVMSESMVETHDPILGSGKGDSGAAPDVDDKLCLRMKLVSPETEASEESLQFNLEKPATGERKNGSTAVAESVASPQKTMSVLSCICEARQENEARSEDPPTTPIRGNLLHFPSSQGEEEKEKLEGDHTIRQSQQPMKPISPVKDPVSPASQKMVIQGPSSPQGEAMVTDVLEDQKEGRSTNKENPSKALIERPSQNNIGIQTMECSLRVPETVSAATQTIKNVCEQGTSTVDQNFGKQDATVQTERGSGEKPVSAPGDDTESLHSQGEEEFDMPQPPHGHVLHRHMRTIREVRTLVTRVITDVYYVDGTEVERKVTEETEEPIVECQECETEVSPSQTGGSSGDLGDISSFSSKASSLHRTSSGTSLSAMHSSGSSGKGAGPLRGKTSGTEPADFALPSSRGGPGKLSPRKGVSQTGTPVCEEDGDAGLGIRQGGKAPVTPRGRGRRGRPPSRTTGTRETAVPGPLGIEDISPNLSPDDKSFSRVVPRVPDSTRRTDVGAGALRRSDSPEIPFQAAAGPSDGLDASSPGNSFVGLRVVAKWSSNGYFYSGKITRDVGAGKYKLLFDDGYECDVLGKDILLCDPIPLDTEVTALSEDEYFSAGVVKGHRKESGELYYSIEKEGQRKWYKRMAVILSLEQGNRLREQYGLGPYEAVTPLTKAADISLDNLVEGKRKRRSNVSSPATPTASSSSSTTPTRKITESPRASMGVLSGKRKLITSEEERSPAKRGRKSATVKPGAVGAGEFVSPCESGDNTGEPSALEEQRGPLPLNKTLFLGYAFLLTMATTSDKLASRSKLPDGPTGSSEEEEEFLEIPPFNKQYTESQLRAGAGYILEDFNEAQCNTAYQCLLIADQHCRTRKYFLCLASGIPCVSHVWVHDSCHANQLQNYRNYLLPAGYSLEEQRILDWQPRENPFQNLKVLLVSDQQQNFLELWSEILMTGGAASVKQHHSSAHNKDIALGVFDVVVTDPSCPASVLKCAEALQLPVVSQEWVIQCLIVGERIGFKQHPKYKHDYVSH
UniProt Q92878: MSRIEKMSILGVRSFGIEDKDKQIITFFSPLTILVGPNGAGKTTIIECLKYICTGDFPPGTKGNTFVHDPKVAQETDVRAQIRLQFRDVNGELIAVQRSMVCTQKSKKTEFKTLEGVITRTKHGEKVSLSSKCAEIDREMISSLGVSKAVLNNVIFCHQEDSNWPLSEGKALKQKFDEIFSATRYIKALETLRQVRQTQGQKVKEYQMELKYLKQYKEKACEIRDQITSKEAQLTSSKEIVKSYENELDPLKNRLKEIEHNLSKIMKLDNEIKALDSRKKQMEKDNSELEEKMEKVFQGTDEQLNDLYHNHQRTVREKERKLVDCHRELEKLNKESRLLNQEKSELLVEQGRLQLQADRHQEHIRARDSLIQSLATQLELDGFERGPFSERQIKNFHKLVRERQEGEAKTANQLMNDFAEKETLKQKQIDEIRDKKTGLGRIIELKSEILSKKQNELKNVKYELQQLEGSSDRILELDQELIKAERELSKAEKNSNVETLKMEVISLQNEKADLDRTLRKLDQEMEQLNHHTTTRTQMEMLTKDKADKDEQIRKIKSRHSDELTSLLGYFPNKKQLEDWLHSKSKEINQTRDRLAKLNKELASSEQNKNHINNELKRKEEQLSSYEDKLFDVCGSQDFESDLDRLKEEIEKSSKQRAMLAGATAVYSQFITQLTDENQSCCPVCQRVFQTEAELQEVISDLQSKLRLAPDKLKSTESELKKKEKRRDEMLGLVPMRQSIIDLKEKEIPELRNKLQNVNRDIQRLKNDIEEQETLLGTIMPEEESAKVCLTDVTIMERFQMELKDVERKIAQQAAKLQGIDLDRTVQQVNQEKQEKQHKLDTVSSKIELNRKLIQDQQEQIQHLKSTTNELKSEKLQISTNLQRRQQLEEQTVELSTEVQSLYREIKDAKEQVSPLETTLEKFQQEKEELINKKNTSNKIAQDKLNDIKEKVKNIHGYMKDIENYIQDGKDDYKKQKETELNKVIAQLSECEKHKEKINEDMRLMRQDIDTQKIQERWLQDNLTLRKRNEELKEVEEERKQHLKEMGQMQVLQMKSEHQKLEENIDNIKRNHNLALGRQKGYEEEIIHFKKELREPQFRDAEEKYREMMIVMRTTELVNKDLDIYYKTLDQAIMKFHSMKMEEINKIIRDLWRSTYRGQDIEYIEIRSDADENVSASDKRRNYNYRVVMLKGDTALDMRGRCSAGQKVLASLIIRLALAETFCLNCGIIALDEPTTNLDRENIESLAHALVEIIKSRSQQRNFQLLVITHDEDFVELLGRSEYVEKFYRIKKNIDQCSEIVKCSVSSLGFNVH
UniProt P18887: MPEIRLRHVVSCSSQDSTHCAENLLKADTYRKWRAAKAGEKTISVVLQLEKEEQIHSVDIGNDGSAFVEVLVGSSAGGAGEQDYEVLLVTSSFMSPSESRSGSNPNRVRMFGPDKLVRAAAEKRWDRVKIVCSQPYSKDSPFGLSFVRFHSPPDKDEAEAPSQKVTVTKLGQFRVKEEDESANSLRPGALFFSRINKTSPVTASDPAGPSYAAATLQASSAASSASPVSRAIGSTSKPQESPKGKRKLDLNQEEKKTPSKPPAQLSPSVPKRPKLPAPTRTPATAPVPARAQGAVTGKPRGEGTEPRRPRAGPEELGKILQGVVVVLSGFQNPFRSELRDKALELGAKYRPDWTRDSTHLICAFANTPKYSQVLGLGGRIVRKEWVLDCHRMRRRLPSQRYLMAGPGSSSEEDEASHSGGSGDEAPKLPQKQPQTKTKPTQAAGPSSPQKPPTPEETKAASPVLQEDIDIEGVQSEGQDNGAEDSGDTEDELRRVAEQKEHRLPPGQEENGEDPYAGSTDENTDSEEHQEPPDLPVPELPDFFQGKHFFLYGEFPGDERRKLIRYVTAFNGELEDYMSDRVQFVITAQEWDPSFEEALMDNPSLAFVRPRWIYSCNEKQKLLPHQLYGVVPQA
UniProt P15927: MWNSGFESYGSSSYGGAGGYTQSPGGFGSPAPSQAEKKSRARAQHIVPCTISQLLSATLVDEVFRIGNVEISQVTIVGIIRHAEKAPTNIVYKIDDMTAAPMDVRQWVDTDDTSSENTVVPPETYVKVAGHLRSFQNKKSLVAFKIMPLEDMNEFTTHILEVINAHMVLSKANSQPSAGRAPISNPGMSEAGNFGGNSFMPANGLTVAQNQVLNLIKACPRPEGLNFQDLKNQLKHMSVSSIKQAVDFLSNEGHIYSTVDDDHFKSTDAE

The target of assay [1] is FLAG-hnRNP UL1, stably expressed (HEK UL1 OE cells) (human) (UniProt Q9BUJ2). Briefly: co-IP; magnetic beads conjugated with anti-FLAG antibodies; 250 ug protein extract of NO and CN fractions of HEK UL1 OE cells; overnight at 4 C; washes in PBS-T and lysis buffer (50 mM Tris pH 7.8, 150 mM NaCl, 0.1% NP40); HEK WT extract as negative control; western blot. (In general: In western blotting, separated proteins are transferred to a membrane and probed.)

Assay [2] deals with hnRNP UL1 (heterogeneous nuclear ribonucleoprotein U-like protein 1), endogenous (human (endogenous in HEK293)) (UniProt Q9BUJ2). Briefly: co-IP; anti-hnRNP UL1 antibodies on Dynabeads Protein G; 250 ug protein extract of NO and CN fractions of HEK WT cells; 1.5 h at 4 C; washes in PBS with 0.02% Tween 20; beads without antibody as negative control; western blot.

For the substance 53BP1 (from UniProt Q12888 1-1972), in assay [1], the binding entry is on record as “no binding”.

For the substance RAD50 (from UniProt Q92878 1-1312), the binding result in assay [1] is “no binding”.

With “X-ray repair cross-complementing protein 1 (XRCC1) (from UniProt P18887 1-633)”, in assay [1], the binding entry was “binds weakly”.

As for “replication protein A 32 kDa subunit (RPA32), detected as pRPA32 (from UniProt P15927 1-270)”, in assay [2], the binding result is listed as “binds”.

The record behind these values is article PMC9379416.
